Out of some 340,000 compounds screened, about 170 (0.05%) were called active. This list was built around the results that the source calls inconclusive (neither active nor inactive); the mix of calls is not that of the screen. The call rests on the fitted dose curve; in most records, active means well fitted inhibition curve with a large enough effect in the signal ratio, with a control signal flat (not every such curve was filed as active); inconclusive means small, poorly fitted or top-dose-only effect, or effect the other way, or a change in a side signal; inactive means flat fitted curve, though single readings scatter; the % refers to the signal ratio. Potencies of inconclusive entries are doubtful fits and often do not repeat.
assay: qHTS Assay to Find Inhibitors of Chronic Active B-Cell Receptor Signaling; details: ABC-DLBCL IkBa-CBG/CBR reporter, luminescence ratio (green luciferase fused to IkBa over red control in TMD8 lymphoma cells), 4 h; activity change, negative = inhibition: at 46.1 µM (top of the series) unless noted;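 on activity change, negative = inhibition: plate controls were basal doxycycline-induced cells for no effect and cells given 10 µM MG132 for full effect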
In short: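 Concentration-response series (up to 46 uM) were applied to TMD8 dual-reporter cells for 4 h at 37C with doxycycline. Green/red ratio, after filter-overlap correction, defined %Activity; red signal alone was normalised to basal cells and zero luminescence.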
Potency means the concentration at half of the fitted maximal effect.

Compound	activity change, negative = inhibition	Potency
COc1ccc(N(C(=O)c2ccccc2OC)C2C=CS(=O)(=O)C2)c(OC)c1 (centres undefined)	inconclusive: 2.49%	–
CN(C)c1cc(-c2ccc(F)cc2)oc(=O)c1Cl	inconclusive: 10.4%	–
CCOC(=O)c1ccc(COC(=O)CNS(=O)(=O)c2ccccc2)cc1	inconclusive: -12.1%	–
CC1(N2CCCCC2)C(=O)c2ccccc2C1=O	inactive: -2.86%	–
CCOC(=O)CN1C(=O)S/C(=C/c2cccc([N+](=O)[O-])c2O)C1=O	–	inconclusive: 2.82 µM [rising, full curve, poor fit]
CC(C)CC(NC(=O)C(CC(C)C)NC(=O)C(Cc1ccc(OCc2ccccc2)cc1)NC(=O)OC(C)(C)C)C(N)=O (centres undefined)	inactive: 9.16%	–
Cc1ccc(N/N=C/c2cccnc2)cc1	inconclusive: -0.0281%	–
COc1ccc(N(CC(=O)N2CCC(Cc3ccccc3)CC2)S(C)(=O)=O)cc1	inconclusive: -5.86%	–
Clc1ccc(CSc2nnc(Cn3cnc4ccccc43)o2)cc1	inconclusive: -8.63%	–
COC(=O)/C(C#N)=C/c1ccc(OC(=O)c2ccccn2)cc1	–	inconclusive: 20.6 µM [falling, partial curve]
CCNC(=O)CC1C(=O)N(c2cccc(OC)c2)C(=O)N1CCOC (centres undefined)	inconclusive: 2.9%	–
S=c1nc2ccccc2c2nc(-c3ccccc3Cl)[nH]n12	inconclusive: -6.38%	–
Cc1ccnc(NC(=O)CSc2ccc3c(c2)OCCO3)c1	–	inconclusive: 29.1 µM [falling, single point]
O=[N+]([O-])c1cccc(-n2cc3ccc([N+](=O)[O-])cc3n2)c1	inconclusive: 13.9%	–
COC(=O)C1(C)Cc2cc(OC(C)=O)c(OC(C)=O)cc2N1 (centres undefined)	–	inconclusive: 20 µM [falling, single point]
CC(OC(=O)c1cccc(-n2cnnn2)c1)C(=O)N(C)c1ccccc1 (centres undefined)	inconclusive: 1.13%	–
CCN(CC(=O)N(CC(C)C)c1c(N)n(CC(C)C)c(=O)[nH]c1=O)Cc1nc2ccccc2c(=O)[nH]1	inconclusive: 6.72%	–
COC(=O)C1=C(C)OC(N)=C(C#N)C1c1cc(OC)ccc1OC (centres undefined)	–	inconclusive: 35.5 µM [falling, single point]
COc1ccccc1C(=O)COC(=O)Cn1[nH]c(=O)c2ccccc2c1=O	inactive: 4.69%	–
Cc1ccc2sc(N(CCCN(C)C)C(=O)c3ccc(S(=O)(=O)N4CCc5ccccc5C4)cc3)nc2c1C	inactive: 14.3%	–
O=C(Nc1cccc(NC(=O)c2ccccc2Cl)c1)c1ccc([N+](=O)[O-])o1	–	inconclusive: 20 µM [falling, partial curve]
O=C1NCCCC2c3cc(O)c4ccccc4c3OC12N1CCCCC1 (centres undefined)	inconclusive: -16.8%	–
CCOC(=O)c1c(C)oc2cc(Cl)c(O)c(CN(C)C)c12	inconclusive: 2.14%	–
Cc1cc(NC(=O)NC(=O)c2ccccc2F)no1	inconclusive: -15.4%	–
COc1ccc(N2CCN(Cc3cc(=O)oc4cc(-c5ccccc5)c(O)cc34)CC2)cc1	inactive: -2.8%	–
CN1CCN(C(=O)/C=C/c2ccc([N+](=O)[O-])o2)CC1	inactive: -17.3%	–
COc1ccc(Nc2oc(COc3cccc(C)c3)nc2C#N)cc1	–	inconclusive: 18.4 µM [falling, single point]

Reprinted at random: 3 records from the list.
Compound	activity change, negative = inhibition	Potency
CC(OC(=O)c1cccc(-n2cnnn2)c1)C(=O)N(C)c1ccccc1 (centres undefined)	inconclusive: 1.13%	–
CCN(CC(=O)N(CC(C)C)c1c(N)n(CC(C)C)c(=O)[nH]c1=O)Cc1nc2ccccc2c(=O)[nH]1	inconclusive: 6.72%	–
O=[N+]([O-])c1cccc(-n2cc3ccc([N+](=O)[O-])cc3n2)c1	inconclusive: 13.9%	–

(continued)

Compound	activity change, negative = inhibition	Potency
CN(CC(=O)Nc1ccc(Cl)c(C(F)(F)F)c1)C(=O)/C=C/c1cccs1	inconclusive: 5.81%	–
CC1(C)Cc2ccccc2C(C(Cc2ccccc2)C(N)=O)=N1 (centres undefined)	inconclusive: -4.41%	–
CCS(=O)(=O)c1ccc(-c2cccc(NC(=O)c3ccco3)c2)nn1	inconclusive: 4.3%	–
CC1(C)Cc2c(sc3nc(-c4ccccc4)oc(=O)c23)CO1	–	inconclusive: 0.461 µM [falling, partial curve, poor fit]
COc1ccc(NC(=O)C/C(C)=N/NC(=O)c2ccco2)c([N+](=O)[O-])c1	–	inconclusive: 35.5 µM [falling, single point]
O=C(Nc1ccccc1)C1=C[C@H](c2ccc3c(c2)OCO3)C[C@H](OCc2ccc(CO)cc2)O1	–	inconclusive: 25.1 µM [falling, single point]
NC(=O)c1ccccc1NC(=O)CCc1ccccc1	–	inconclusive: 22.4 µM [falling, partial curve]
O=C1CN(C(=O)COc2ccc(Cl)c(Cl)c2)c2ccccc2N1	–	inconclusive: 25.9 µM [falling, partial curve, poor fit]
COc1ccccc1CNC(=O)CSc1ncc(C(=O)Nc2ccccc2)c(=O)n1C	–	inconclusive: 0.184 µM [falling, partial curve]
CCN(CC(=O)Nc1ccc(OC)cc1)C(=O)c1cc([N+](=O)[O-])ccc1N1CCOCC1	inconclusive: 0.164%	–
N#Cc1cccnc1N1CCN(C(=O)c2cccc3c2C(=O)c2ccc(Cl)cc2S3(=O)=O)CC1	inconclusive: 0.555%	–
O=C(Nc1nccs1)C1CCN(S(=O)(=O)c2ccc3c(c2)OCCCO3)CC1	inconclusive: 0.337%	–
CN1CCN(CC(=O)N2CCn3c4c(c5cc(C6CCCCC6)ccc53)CCCC42)CC1 (centres undefined)	inconclusive: 10.1%	–
N#C/C(=C\c1cccnc1)c1ccc(Br)cc1	inconclusive: 1.84%	–
COc1cccc(OC)c1C(=O)Nc1c(C(=O)N2CCN(c3ccccn3)CC2)oc2ccccc12	inconclusive: 5.07%	–
CC(C)C(=O)N/N=C/c1ccc(OCc2ccccc2)cc1	inconclusive: 5.08%	–
O=C(NCc1cccs1)C1CC(c2ccccc2O)=NO1 (centres undefined)	–	inconclusive: 6.51 µM [falling, single point]
C=CCOc1ccc(/C=C2\SC(=S)N(CCC(=O)O)C2=O)cc1	–	inconclusive: 0.562 µM [falling, partial curve, poor fit]
COc1cccc(C(=O)O[C@H]2[C@H](C)NS(=O)(=O)[C@H]3C[C@@H]4C=C[C@]23O4)c1	inactive: -2.97%	–
CCOC(=O)c1ccccc1NC(=O)Cc1sc(-c2cccnc2)nc1-c1ccc(C)cc1	inactive: -6.67%	–
CCOc1ccccc1NC(=O)/C(C#N)=C/c1cccnc1	inconclusive: -4.31%	–
O=C(CNC(=O)Cn1ccc2ccccc2c1=O)NCCCN1CCCCCC1	inconclusive: 2.1%	–
Cc1ccc(NC(=O)CSc2nnc(CCC(=O)O)c(=O)[nH]2)cc1	inconclusive: -8.64%	–
COc1ccc2nc(C(F)(F)Cl)c(C#N)c(N)c2c1	–	inconclusive: 0.708 µM [activator, full curve, poor fit]
CC(=O)C1=NN(c2ccc(Cl)cc2)C(c2ccc3c(c2)OCO3)N(C(C)=O)N1C (centres undefined)	inconclusive: -3.37%	–
CC1=NN(C(=O)c2ccccc2Cl)C(O)(c2cccnc2)C1 (centres undefined)	–	inconclusive: 5.01 µM [falling, partial curve]
CCc1ccccc1NC(=O)CN(c1ccc(OC)cc1OC)S(=O)(=O)c1ccccc1	inactive: 1.59%	–

Structural class, the entries above with a COOH group (2)
Compound	activity change, negative = inhibition	Potency
C=CCOc1ccc(/C=C2\SC(=S)N(CCC(=O)O)C2=O)cc1	–	inconclusive: 0.562 µM [falling, partial curve, poor fit]
Cc1ccc(NC(=O)CSc2nnc(CCC(=O)O)c(=O)[nH]2)cc1	inconclusive: -8.64%	–

More entries

Compound	activity change, negative = inhibition	Potency
NNCCc1ccccc1	inconclusive: -10.6%	–
O=C(CCN1CCOCC1)Nc1ccccc1	inactive: -5.17%	–
Cn1c(=O)c2c(nc(SCC(=O)N3CCCCCC3)n2C)n(C)c1=O	inconclusive: 26.6%	–
Cc1nc(Sc2nnnn2C)c2c3c(sc2n1)CCC3	–	inconclusive: 11.2 µM [falling, partial curve, poor fit]
C/C(=N\OCc1nc2ccccc2c(=O)n1/N=C/c1cc(C)cc([N+](=O)[O-])c1O)c1ccccc1	–	inconclusive: 35.5 µM [falling, single point]
O=C(NC1CCCC1)c1cccc(Oc2ccccc2)c1	inconclusive: 2.43%	–
CC(C)c1nc(N2CCOCC2)c(C#N)c2c1CCC2	inactive: -1.17%	–
COc1ccc(N2C(=O)C3CCCCC3C2=O)cc1NC(=O)c1ccccc1 (centres undefined)	inactive: 21.8%	–
CC1(C)OC(c2ccccc2)=C/C(=C/C=Nc2ccccc2)O1	inconclusive: 5.05%	–
CCCc1cc(=O)[nH]c(SCc2cccc(C)c2)n1	–	inconclusive: 29.1 µM [falling, single point]
COc1ccc(OCc2n[nH]c(=S)n2-c2ccc(C)cc2)cc1	inconclusive: 6.07%	–
CC1=NN(c2ccccc2)C(=O)C1N=Nc1ccc(N)cc1 (centres undefined)	–	inconclusive: 23.1 µM [rising, partial curve, poor fit]
Cc1cc2cc(C=O)c(Cl)nc2cc1C	inactive: -3.37%	–
O=C(CSc1ccc2nnc(-c3ccncc3)n2n1)NCC1CCCO1 (centres undefined)	inconclusive: 9.34%	–
Clc1ccc2c(NCc3ccccc3)ccnc2c1	inactive: 0.289%	–
CCOC(=O)c1c(NC(=O)Cn2cnc([N+](=O)[O-])n2)sc(C)c1C	–	inconclusive: 35.5 µM [falling, single point]
COc1ccc(-c2csc(=NCCO)n2-c2ccccc2)cc1	inconclusive: -0.728%	–
O=C(N/N=C/c1ccccc1F)c1ccc(COc2ccccc2Cl)o1	inconclusive: -5.21%	–
CC1(C)NC(=O)N(CC(=O)N2CCN(S(=O)(=O)c3ccccc3C(F)(F)F)CC2)C1=O	inconclusive: 2.01%	–
CC(=O)OC(CC(=O)O)C[N+](C)(C)C (centres undefined)	inactive: -0.422%	–
CC(C)(C)n1nnnc1C(c1ccc2ncccc2c1)N1CCSCC1 (centres undefined)	–	inconclusive: 29.1 µM [falling, single point]
CC(C)c1ccc(-c2nc(N3CCCC3)nc3n[nH]c(N)c23)cc1	inconclusive: -1.86%	–
C[C@H](CO)N1C[C@H](C)[C@@H](CN(C)C(=O)Nc2ccc3c(c2)OCO3)Oc2ccc(NS(=O)(=O)c3ccc(F)cc3)cc2C1=O	inconclusive: 0.178%	–
CN(Cc1cccs1)c1ncnc2sccc12	inconclusive: -9.24%	–
CCOc1ccccc1C(=O)Nc1cccc(-c2nnc(-c3ccccc3)o2)c1	inconclusive: 7.55%	–

From PubChem BioAssay AID493014 (National Center for Advancing Translational Sciences (NCATS), 2011)
